In paper PMC5847313 one finds binding data, which are given here for three substances.

The chains behind the UniProt entries cited, without tags or fusion partners. Where a name states a change or a piece, a line headed by the entry shows the natural chain unless it says otherwise. Residues count along the entry.
UniProt P12579: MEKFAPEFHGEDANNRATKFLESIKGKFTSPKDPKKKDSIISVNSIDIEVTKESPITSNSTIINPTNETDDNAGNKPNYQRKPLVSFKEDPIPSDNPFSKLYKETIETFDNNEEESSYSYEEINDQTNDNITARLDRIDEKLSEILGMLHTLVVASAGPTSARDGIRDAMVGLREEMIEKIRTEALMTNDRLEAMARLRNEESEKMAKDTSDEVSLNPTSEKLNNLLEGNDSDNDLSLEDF
RSV P fragment P[1–126], cleaved from GST: residues 1-126 of P12579
UniProt P62136, residues 7-300: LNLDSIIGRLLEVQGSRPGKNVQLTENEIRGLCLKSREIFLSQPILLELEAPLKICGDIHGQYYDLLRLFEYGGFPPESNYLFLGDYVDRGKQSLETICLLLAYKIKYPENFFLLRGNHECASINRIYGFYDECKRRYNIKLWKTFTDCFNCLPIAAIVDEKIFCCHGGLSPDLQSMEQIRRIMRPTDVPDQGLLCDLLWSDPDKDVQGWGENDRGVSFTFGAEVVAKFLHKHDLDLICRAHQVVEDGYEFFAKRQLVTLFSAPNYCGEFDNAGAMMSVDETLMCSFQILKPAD
UniProt A0A8C2LGY1: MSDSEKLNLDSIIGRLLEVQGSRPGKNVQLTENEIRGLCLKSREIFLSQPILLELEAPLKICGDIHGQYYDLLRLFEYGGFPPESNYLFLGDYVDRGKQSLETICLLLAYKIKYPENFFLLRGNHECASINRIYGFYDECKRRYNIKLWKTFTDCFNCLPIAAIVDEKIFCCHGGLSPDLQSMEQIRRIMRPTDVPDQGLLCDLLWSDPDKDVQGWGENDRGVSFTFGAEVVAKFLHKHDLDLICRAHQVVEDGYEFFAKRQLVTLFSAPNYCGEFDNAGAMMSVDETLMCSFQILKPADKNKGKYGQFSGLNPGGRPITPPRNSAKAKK

The target in experiment [1] is RSV P fragment P[1–126], cleaved from GST (human respiratory syncytial virus, strain Long) (UniProt P12579). The experiment can be described thus: NMR titration; 1H-15N BEST-TROSY of 25 μM 15N-labeled P[1–126] or full-length P, alone and with 2 molar equivalents of unlabeled GST-PP1α; 288 K; 20 mM sodium phosphate pH 6.8, 100 mM NaCl; both purified.
Experiment [2] deals with RSV phosphoprotein P, full-length recombinant, cleaved from GST (human respiratory syncytial virus, strain Long) (UniProt P12579). The description is as above.
For experiment [3], the target named is GST-PP1α (PP1A residues 7–300 fused to GST) (UniProt P62136). The experiment can be described thus: pull-down; GST-PP1 at 25 μM on glutathione-Sepharose beads, 3-fold molar excess of P WT or F87A, 3% BSA, 20 mM Tris/HCl pH 7.4, 150 mM NaCl, 1 h at 20°C; SDS-PAGE and Coomassie blue; both purified.
Experiment [4] concerns the target HA-P (RSV P with an N-terminal HA tag) (human respiratory syncytial virus, strain Long) (UniProt P12579). The experiment can be described thus: co-IP; BSRT7/5 cells transfected with pN and pHA-P or pHA-P[F87A]; anti-HA immunoprecipitation; blot for endogenous PP1.

These are yes or no findings as the source states them, for the method shown. For some of these results: In cells and extracts the contact can be indirect. Some entries that bind do so weakly or less than the wild type.

Take “GST-PP1α (PP1A residues 7–300 fused to GST) (from UniProt P62136 7-300) (enzyme)”: the binding result in experiment [1] and in experiment [2] was “binds” throughout.
For the substance “RSV phosphoprotein P, full-length recombinant, cleaved from GST (from UniProt P12579 1-241)”, in experiment [3], the binding entry was “binds”.
Regarding “cellular protein phosphatase 1 (PP1), endogenous (from UniProt A0A8C2LGY1 1-330) (enzyme)”, the binding result in experiment [4] was “binds”.
